Assay results: the supplement of paper PMC12578635
This is one part of the list. Cut-off read from the data, not from the text of the source: active = 150% or more and inactive = the rest. Many values rest on one well or one pass, so single values are uncertain.

test system: Staphylococcus aureus JE2-lux inside RAW 264.7 macrophages; assay: intracellular bacterial bioluminescence relative to DMSO vehicle; higher = higher intracellular bacterial metabolic activity; settings: 10 µM; treatment time 4 h; gentamicin 50 µg/ml

Intracellular bacterial bioluminescence, active:
O=C(CSc1nnc2ccc(-c3ccncc3)nn12)NCc1ccc(F)cc1 151%, Cc1cc(C)nc(NS(=O)(=O)c2ccc(NC(=O)c3ccc(Cl)cc3)cc2)n1 163%

Intracellular bacterial bioluminescence, inactive:
Cn1nc(C(=O)NCc2ccc(F)cc2)c2c1CCN(C(=O)c1cc(-c3cccs3)on1)C2 95.4%, O=C(NCC1CCCN1S(=O)(=O)c1cccs1)c1ccc([N+](=O)[O-])cc1 (stereo unspecified) 111%, COc1ccccc1C(=O)Nc1cc(C(=O)N(C)C)cnc1N1CCNCC1 104%, O=C(NCc1ccc2c(c1)OCO2)c1ccc(-c2ccc(N3CCOCC3)nn2)cc1 104%, COc1ccc(CNC(=O)CSc2nccnc2N2CCSCC2)cc1 67.7%, COc1cc(C(=O)Nc2cccc3ccccc23)c(-n2cnnn2)cc1OC 104%, COc1ccc(CCNC(=O)Cn2c(-c3cccs3)cc3cccnc32)cc1OC 52.8%, Cc1nc2nc(NC(=O)Cn3nnc4ccccc43)ccc2c(C)c1C 16.3%, Cc1ccc(/N=C2/NC(=O)/C(=C/c3ccccc3)S2)cc1 75.7%, C=CCOC(=O)C1=C(C)Nc2c(c(=O)n(C)c(=O)n2C)C1c1cccnc1 (stereo unspecified) 90.8%, O=C(O)CCC(=O)NCCn1c(-c2ccccc2)cs/c1=N/c1ccccc1 121%, COc1cc2cc(C#N)c(SCC(=O)NC3CCCC3)nc2cc1OC 87.4%, CCC1Sc2ccc(S(=O)(=O)CCC(=O)NC(C)(C)C)cc2NC1=O (stereo unspecified) 105%, O=C(NCc1ccc2[nH]c3c(c2c1)CCCC3)Nc1ccc(Cl)cc1 77.9%, NC(=O)c1c(NC(=O)/C=C/c2ccc(Cl)cc2Cl)sc2c1CCCC2 95.7%, Cc1nc(N2CCCC2)c2c(C)c(C(=O)N3CCOCC3)sc2n1 116%, Clc1cccc2nc3n(c12)CCN(C1CCCCC1)C3 101%, CN(Cc1cc(O)nc2ccccc12)S(=O)(=O)c1ccc2c(c1)CCC(=O)N2 81.2%, COCCNC(=O)Cn1nc2c3c(C)c(C)sc3ncn2c1=O 114%, O=C1Nc2ccc(Br)cc2/C1=N/NC(=O)c1ccccc1NC(=O)c1ccccc1 68.1%, Cc1nn2c(-n3cccc3)c(-c3ccc(F)cc3)nc2s1 105%, O=C(Nc1cc2c3c(c1)CCC(=O)N3CCC2)c1cccc(C(F)(F)F)c1 113%, CN(C)CCn1c2c(c(SCC(=O)Nc3ccc([N+](=O)[O-])cc3)nc1=O)CCC2 15.6%, COc1ccc(-c2nc3c(c(=O)[nH]2)Cc2cc(Cl)ccc2O3)c(OC)c1 93.3%, CCOCCCNC(=O)c1sc2nc(C)nc(N3CCCC3)c2c1C 111%, CCn1c(C)cc2cc(NC(=O)c3c(-c4ccncc4)noc3C)ccc21 103%, COc1ccc(CCC(=O)Nc2ccc3c(c2)C(=O)Nc2ccccc2O3)cc1 21%, O=C(CN1C(=O)c2ccccc2C1=O)OCC(=O)c1ccc(-c2ccccc2)cc1 123%, CC(C)NC(=O)CN1CCN(c2ncc(NC(=O)c3ccc(F)cc3)cc2C(=O)O)CC1 87.4%, COc1ccc(NC(=O)CSc2nc3ccccc3c(=O)[nH]2)c(OC)c1 96.8%, CCOC(=O)c1sc(NC(=O)CSc2nc(=O)n3ccc(C)cc3n2)c(C(=O)OCC)c1C 28.8%, C=CCOc1ccccc1NC(=O)c1cnc(N2CCOCC2)nc1 118%, CC(Cc1ccco1)NC(=O)Cn1cccc1-c1nc(-c2ccccc2)cs1 (stereo unspecified) 39.9%, COc1ccccc1CNC(=O)c1cc2c(=O)n3ccccc3nc2n1C 111%, CCOC(=O)CSc1nc2c([nH]1)c(=O)n(C)c(=O)n2C 93.8%, COc1ccc(NC(=O)c2ccc(-n3cnc4c(sc5nc(C)cc(C)c54)c3=O)cc2)c(OC)c1 99.9%, Cc1nc2cc(NC(=O)Nc3ccc(Cl)cc3)ccc2n1-c1ccccc1 102%, COc1cccc(Nc2nc(NC3CCN(Cc4ccccc4)CC3)nc3c2cnn3C)c1 81.4%, CCC(C)NC(=O)c1c(N)n(/N=C/c2cccc(O)c2)c2nc3ccccc3nc12 (stereo unspecified) 108%, Nc1c(C(=O)NCc2ccco2)nnn1Cc1cccc(Cl)c1 51.4%, COc1ccc(C(=O)CSc2nc(=O)[nH]c3c2CCCC3)cc1 129%, CCOC(=O)c1nc(N2CCOCC2)c2c(C)c(C)n(-c3ccccc3)c2n1 51%, CCSc1nnc(NC(=O)CCn2c(=O)oc3ccccc32)s1 47.8%, COc1ccc(-n2nc3c(c2NC(=O)C2(c4ccc(Cl)cc4)CCCC2)CS(=O)C3)cc1 (stereo unspecified) 93.9%, Cc1ccccc1OCCCC(=O)Nc1sc2c(c1C#N)CCC(C)C2 (stereo unspecified) 94.9%, COc1ccc(NC(=O)Cn2cnc3c(cnn3-c3ccc(F)cc3)c2=O)cc1OC 96.1%, Cc1ccc2c(c1)C(=O)OC(C(=O)Nc1cc(C)on1)C2 (stereo unspecified) 61.8%, COc1ccc(C(NC(=O)c2cnc(C(C)(C)C)nc2)c2ccncc2)cc1 (stereo unspecified) 89.2%, CC1CCc2c(sc3ncn(C4CCN(C(=O)c5ccco5)CC4)c(=O)c23)C1 (stereo unspecified) 59.2%, CCC(=O)NCCSc1ncc(-c2ccccc2)[nH]1 99.9%, CCN1C(=O)c2cccc3c(NC(=O)Nc4ccc(Cl)cc4)ccc1c23 47.7%, COc1cc(/C=N/NC(=O)CCc2c(C)n[nH]c2C)ccc1O 117%, c1c2c(cc3sc(N4CCOCC4)nc13)OCCO2 102%, O=C(c1cccc(Nc2nc(-c3ccccc3)c3cc(Cl)ccc3n2)c1)N1CCOCC1 89.6%, O=C(O)c1ccc(CNC2=NS(=O)(=O)c3ccccc32)cc1 116%, Cc1ccc2cccc(S(=O)(=O)Nc3ccc(C(=O)O)cc3)c2n1 115%, CN(Cc1ccccc1)C(=O)Cn1cccc1-c1nc(-c2ccc(Cl)cc2)cs1 87.2%, Cc1cc2nnc(SCC(=O)NCc3ccco3)n2c2ccccc12 61.8%, COc1ccc(OC)c(-n2c(=S)[nH]c3cc(C(=O)NCc4ccco4)ccc3c2=O)c1 90.4%, CC(=O)Nc1ccc2nc(NC(=O)c3cc(Cl)sc3Cl)sc2c1 98.7%, Cn1c(=O)c2sccc2n2c(CCCC(=O)NCCc3c[nH]c4ccccc34)nnc12 118%, NC(=O)c1sc(=S)n(-c2ccccc2)c1N 87.2%, COc1ccc(NC(=O)CSc2nnc(-c3cccnc3)o2)c(OC)c1 87.9%, Cn1c2ccc(Br)cc2c2nnc(SCc3nc4ccccc4[nH]3)nc21 73.6%, c1cnc(N2CCN(c3nn4nnnc4c4ccccc34)CC2)nc1 77.8%, CCOC(=O)C(C)Sc1nc2c(c(=O)[nH]c(=O)n2C)n1CCc1ccccc1 (stereo unspecified) 94.8%, COc1ccc(C2CC(c3cccc(NS(C)(=O)=O)c3)=NN2C(=O)c2ccco2)cc1 (stereo unspecified) 96.7%, CCOC(=O)c1c(C)oc2c1C1=NC(C)(C)CN1C=N2 72.4%, O=C(CSc1nnc2c(n1)-c1cccc3cccc-2c13)NNC(=O)c1ccc(Cl)cc1 110%, CN(C)c1cccc(C(=O)Nc2nnc(-c3ccccc3)[nH]2)c1 97.9%, CCCc1cc(=O)[nH]c2nnc(SCc3ccc(C(=O)OC)o3)n12 112%, COC(=O)c1cc2c(cc1NC(=O)c1cc3cccc(OC)c3oc1=O)OCCO2 113%, Cn1/c(=N\C(=O)CCS(=O)(=O)c2ccc(F)cc2)sc2c(Cl)ccc(Cl)c21 67.5%, Cc1cc2cc3c(N)c(C(=O)N4CCc5ccccc54)sc3nc2cc1C 97.5%, CC(=O)Nc1ccc(NC(=O)CN2CCC3(CC2)NC(=O)N(C)C3=O)cc1 124%, COc1ccccc1N1CC(C)Cn2c1nc1c2c(=O)n(CC(N)=O)c(=O)n1C (stereo unspecified) 106%, COc1cccc(NC(=O)c2sc3nc4c(c(-c5cccs5)c3c2N)CCCCC4)c1 107%, O=C(CNC(=O)c1ccccc1)N/N=C1\C(=O)Nc2ccc([N+](=O)[O-])cc21 108%, COc1cccc(C(=O)COC(=O)c2cc(O)nc3ccccc23)c1 103%, Cc1nc(N2CCN(c3ccccc3)CC2)[nH]c(=O)c1CCC(C)C 111%, COC(=O)c1c(NC(=O)CCc2ccccc2)sc2c1CC(C)(C)NC2(C)C 85.9%, Cc1sc2ncnc(NC3CCCCC3)c2c1S(=O)(=O)N1CCCCC1 44.3%, CCOc1cccc(-c2csc(NC(=O)c3cnc(SC)nc3)n2)c1 91.7%, COc1ccc(C2CC(c3cccs3)=NN2C(=O)COc2cccc3c2CCNC3=O)cc1 (stereo unspecified) 65.3%, CC(NC(=O)CC1Nc2cccc3cccc(c23)NC1=O)c1ccccc1 (stereo unspecified) 74%, COc1cccc(-c2noc(-c3cccn4c(=O)c5ccccc5nc34)n2)c1OC 111%, CN(C(=O)c1ccc(Cn2cccn2)o1)c1nc2c(s1)CCc1c-2cnn1C 81.5%, O=C1NC2(CCN(CC(=O)N3CCCC4CCCCC43)CC2)Nc2ccccc21 (stereo unspecified) 99.1%, Cc1cc(C)c2c(O)nc(SCC(=O)c3ccc(F)c(C)c3)nc2n1 59.7%
